In PubChem BioAssay AID493014 (National Center for Advancing Translational Sciences (NCATS), 2011):
The other results are listed elsewhere or left out. Shown are side measurements of this screen, not its main read-out; they come without a call. Most of these compounds were active or inconclusive in the main read-out, so they are no random draw. Words in brackets tell the shape of the fitted curve; partial curves, single points and poor fits give uncertain potencies.

Assay: qHTS Assay to Find Inhibitors of Chronic Active B-Cell Receptor Signaling
Conditions: ABC-DLBCL IkBa-CBG/CBR reporter, luminescence ratio (green luciferase fused to IkBa over red control in TMD8 lymphoma cells), 4 h
Summary of the method: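 Doxycycline induced both beetle luciferases in TMD8 lymphoma cells; IKK-driven degradation limits the IkappaBalpha-fused green signal, while red luminescence normalises for cell number and nonspecific effects. Compounds tested up to 46 uM, 4 hrs.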

[1] = measured here: CBR red luminescence, cell number

Compound | AC50 [1] | AC50 (measured here: IkBa-CBG green luminescence)
CC(C)C(=O)Nc1cccc(NC(=S)NC(=O)c2ccc(Cl)cc2)c1 | 8.91 µM [falling, partial curve, poor fit] | 
O=C(Nc1ccc(Cl)c(Cl)c1)c1cccc(S(=O)(=O)NCc2cccnc2)c1 | 18.4 µM [falling, partial curve] | 
Cc1csc(NC(=O)c2ccc(Cn3nc(C)c(Br)c3C)o2)n1 | 1.12 µM [falling, full curve, poor fit] | 
COc1cc(-c2noc(C)c2C#CC2(O)CCCCC2)cc(OC)c1OC | 3.98 µM [falling, partial curve] | 
COc1cccc(NC(=O)CN(C)C(=O)c2ccc(N3CCCCC3)c([N+](=O)[O-])c2)c1 | 0.651 µM [falling, partial curve, poor fit] | 
O=S(=O)(NCc1cccs1)c1ccccc1Cl | 18.4 µM [rising, single point] | 
COCCn1c(=S)[nH]c2cc(C(=O)NCCCN3CCOCC3)ccc2c1=O | 6.31 µM [falling, single point] | 
CCOC(=O)c1cc2cc(F)ccc2nc1C | 0.0058 µM [falling, full curve, poor fit] | 
COc1ccc(-c2cccc(C(=O)Nc3ccccc3C)c2)cc1 | 29.1 µM [falling, single point] | 
Cn1c(SCC(=O)c2ccccc2F)nnc1C1CC1 |  | 28.2 µM [falling, single point]
COc1ccc(/C=N/NC(N)=S)cc1 | 0.562 µM [rising, full curve, poor fit] | 
O=C(O)c1cc(N/N=C/c2ccncc2)ccc1Cl | 20 µM [falling, single point] | 
COc1cc(OC)cc(-c2c(-c3cccs3)c3cc(-c4cnc(N)nc4)ccc3n2C)c1 | 2.91 µM [falling, full curve] | 
Nc1ccccc1C(=O)NNC1=C(C(=O)C(F)(F)F)CCC1 | 35.5 µM [falling, single point] | 
CCOC(=O)c1ccc(NC(=O)c2nc[nH]c2C(=O)N[C@H](C)c2ccccc2)cc1 | 12.6 µM [rising, partial curve] | 
COc1ccc(NC(=O)NCCN2CCc3ccccc3C2)cc1 | 25.9 µM [rising, partial curve] | 
O=C(c1ccc(-c2ccccc2)cc1)c1ccccc1C(=O)N1CCOCC1 | 29.1 µM [rising, single point] | 
O=C(CSCc1c(F)cccc1Cl)Nc1ccccc1C(=O)N1CCOCC1 | 12.6 µM [rising, single point] | 
CCOC(=O)C(=CN(CCc1ccccc1)CC(=O)OC)C(=O)OCC | 18.4 µM [rising, partial curve, poor fit] | 

Sorted by molar mass (high to low): some entries from above
Compound | AC50 [1] | AC50 (measured here: IkBa-CBG green luminescence)
O=C(CSCc1c(F)cccc1Cl)Nc1ccccc1C(=O)N1CCOCC1 | 12.6 µM [rising, single point] | 
COCCn1c(=S)[nH]c2cc(C(=O)NCCCN3CCOCC3)ccc2c1=O | 6.31 µM [falling, single point] | 
COc1cc(-c2noc(C)c2C#CC2(O)CCCCC2)cc(OC)c1OC | 3.98 µM [falling, partial curve] | 
COc1ccc(-c2cccc(C(=O)Nc3ccccc3C)c2)cc1 | 29.1 µM [falling, single point] | 
CCOC(=O)c1cc2cc(F)ccc2nc1C | 0.0058 µM [falling, full curve, poor fit] | 
